Measured values reported in paper PMC5374107.
These are yes or no findings as the source states them, for the method shown. Binding calls can cover weak binding; strength is not graded here.

Protein sequences, listed by entry. Tags and fused reporters are not part of them. Lines headed by an entry give the natural chain unless they say otherwise; changes in a name come on top. Residues count along the entry.
UniProt P05362, residues 28-532: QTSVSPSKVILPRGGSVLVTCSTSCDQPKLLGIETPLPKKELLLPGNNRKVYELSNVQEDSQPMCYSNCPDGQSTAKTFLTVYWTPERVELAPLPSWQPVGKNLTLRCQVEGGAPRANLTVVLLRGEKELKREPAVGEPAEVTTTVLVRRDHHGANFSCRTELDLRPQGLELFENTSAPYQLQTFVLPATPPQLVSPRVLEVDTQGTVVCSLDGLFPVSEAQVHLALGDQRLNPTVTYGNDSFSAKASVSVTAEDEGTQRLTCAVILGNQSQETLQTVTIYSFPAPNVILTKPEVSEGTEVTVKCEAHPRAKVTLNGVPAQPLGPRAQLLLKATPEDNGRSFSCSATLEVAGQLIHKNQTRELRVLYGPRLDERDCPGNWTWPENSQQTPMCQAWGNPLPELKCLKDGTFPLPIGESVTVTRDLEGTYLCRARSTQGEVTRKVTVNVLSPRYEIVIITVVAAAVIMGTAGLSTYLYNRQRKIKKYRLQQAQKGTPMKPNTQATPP
UniProt A3R6S0: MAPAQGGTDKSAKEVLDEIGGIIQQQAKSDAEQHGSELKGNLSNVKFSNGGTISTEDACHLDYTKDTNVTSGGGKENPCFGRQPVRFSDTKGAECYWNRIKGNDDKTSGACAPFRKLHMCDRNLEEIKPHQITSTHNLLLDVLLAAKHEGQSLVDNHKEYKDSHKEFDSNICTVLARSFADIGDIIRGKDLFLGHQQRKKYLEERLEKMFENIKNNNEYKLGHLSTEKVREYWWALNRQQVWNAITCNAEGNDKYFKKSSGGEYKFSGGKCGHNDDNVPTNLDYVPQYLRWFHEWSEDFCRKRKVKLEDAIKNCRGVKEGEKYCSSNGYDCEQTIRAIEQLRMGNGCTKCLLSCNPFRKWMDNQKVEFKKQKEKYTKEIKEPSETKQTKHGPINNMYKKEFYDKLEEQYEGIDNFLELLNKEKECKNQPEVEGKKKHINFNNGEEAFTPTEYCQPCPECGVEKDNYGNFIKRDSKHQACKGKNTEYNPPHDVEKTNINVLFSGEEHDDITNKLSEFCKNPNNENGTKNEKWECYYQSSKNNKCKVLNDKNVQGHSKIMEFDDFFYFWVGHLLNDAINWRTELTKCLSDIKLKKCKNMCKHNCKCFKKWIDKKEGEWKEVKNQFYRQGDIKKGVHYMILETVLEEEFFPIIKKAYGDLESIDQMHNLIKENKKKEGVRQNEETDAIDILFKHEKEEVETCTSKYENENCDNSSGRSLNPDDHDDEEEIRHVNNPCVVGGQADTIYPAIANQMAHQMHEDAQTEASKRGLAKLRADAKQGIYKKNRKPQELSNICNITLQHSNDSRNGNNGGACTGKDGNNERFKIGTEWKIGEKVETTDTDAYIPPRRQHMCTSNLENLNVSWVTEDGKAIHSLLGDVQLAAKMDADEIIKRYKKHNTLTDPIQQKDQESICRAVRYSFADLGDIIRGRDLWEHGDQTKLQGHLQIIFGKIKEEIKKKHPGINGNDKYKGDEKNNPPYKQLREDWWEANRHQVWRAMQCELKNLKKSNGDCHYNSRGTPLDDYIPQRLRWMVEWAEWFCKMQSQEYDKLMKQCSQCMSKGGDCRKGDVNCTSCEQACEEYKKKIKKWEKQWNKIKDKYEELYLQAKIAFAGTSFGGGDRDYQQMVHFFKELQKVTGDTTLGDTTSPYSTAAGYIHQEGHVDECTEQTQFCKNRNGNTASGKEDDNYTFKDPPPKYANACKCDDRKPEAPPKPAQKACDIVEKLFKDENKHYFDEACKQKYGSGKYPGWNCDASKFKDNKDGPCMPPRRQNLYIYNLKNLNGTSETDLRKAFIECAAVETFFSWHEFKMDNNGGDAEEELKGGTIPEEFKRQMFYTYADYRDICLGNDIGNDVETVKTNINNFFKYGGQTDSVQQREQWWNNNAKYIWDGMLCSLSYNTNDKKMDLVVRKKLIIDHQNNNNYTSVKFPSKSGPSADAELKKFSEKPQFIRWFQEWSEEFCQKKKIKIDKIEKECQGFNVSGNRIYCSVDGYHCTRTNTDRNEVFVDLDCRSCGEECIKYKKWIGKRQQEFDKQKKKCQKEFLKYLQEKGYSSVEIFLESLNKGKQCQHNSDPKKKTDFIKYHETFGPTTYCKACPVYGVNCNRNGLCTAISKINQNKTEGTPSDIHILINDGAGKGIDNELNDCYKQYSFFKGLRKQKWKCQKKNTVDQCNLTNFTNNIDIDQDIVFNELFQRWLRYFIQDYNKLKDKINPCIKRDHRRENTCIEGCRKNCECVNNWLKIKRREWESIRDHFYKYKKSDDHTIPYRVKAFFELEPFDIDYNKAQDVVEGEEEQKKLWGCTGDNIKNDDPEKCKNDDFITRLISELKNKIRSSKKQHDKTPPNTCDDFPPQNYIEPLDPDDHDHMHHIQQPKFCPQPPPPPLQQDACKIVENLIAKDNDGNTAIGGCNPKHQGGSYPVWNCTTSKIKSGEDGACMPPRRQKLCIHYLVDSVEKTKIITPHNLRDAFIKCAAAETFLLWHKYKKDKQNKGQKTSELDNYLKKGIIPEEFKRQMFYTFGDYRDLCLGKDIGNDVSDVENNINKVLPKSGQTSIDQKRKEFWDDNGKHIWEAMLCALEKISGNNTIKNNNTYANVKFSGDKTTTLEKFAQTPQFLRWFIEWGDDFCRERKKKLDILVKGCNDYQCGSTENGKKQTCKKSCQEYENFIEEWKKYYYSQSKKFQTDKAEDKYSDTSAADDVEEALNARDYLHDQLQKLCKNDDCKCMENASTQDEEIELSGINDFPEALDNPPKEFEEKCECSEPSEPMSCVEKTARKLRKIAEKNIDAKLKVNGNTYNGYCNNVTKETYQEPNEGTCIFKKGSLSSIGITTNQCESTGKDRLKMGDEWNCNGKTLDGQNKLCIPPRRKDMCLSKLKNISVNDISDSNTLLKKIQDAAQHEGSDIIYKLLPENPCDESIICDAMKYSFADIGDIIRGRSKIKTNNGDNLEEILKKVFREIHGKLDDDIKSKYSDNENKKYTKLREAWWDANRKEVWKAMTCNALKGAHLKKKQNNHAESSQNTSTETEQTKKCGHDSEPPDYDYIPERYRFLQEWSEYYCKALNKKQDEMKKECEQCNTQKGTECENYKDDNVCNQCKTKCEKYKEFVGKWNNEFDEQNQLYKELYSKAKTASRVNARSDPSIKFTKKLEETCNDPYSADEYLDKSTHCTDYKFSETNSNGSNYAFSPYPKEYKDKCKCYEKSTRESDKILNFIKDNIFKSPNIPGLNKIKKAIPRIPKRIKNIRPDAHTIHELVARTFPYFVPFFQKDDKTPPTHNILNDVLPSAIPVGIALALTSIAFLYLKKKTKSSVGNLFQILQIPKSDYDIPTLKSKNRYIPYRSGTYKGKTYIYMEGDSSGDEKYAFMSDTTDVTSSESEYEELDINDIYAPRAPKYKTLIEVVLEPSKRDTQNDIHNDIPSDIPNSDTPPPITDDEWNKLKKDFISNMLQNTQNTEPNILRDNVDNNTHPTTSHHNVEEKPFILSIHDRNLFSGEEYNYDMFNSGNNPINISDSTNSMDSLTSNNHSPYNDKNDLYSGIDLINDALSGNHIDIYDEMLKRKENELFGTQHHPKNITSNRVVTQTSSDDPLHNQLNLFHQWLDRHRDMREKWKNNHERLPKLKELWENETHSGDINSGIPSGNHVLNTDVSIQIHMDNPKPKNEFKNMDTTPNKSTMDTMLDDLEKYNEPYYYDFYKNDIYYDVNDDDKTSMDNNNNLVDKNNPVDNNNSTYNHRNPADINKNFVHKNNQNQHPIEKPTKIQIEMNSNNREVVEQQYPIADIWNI

Assays:
[1] = target: ICAM-1 expressed on the surface of HBMEC (human (endogenous in HBMEC)) (UniProt P05362); assay: adhesion of infected erythrocytes under flow; microslides seeded with HBMEC, resting or treated with TNFα; pre-incubated with anti-ICAM-1 (40 μg/mL), anti-EPCR (10 μg/mL) or both to tell the receptor
[2] = target: T1, EPCR expressed on the surface of HBMEC (human (endogenous in HBMEC)) (UniProt Q9UNN8); assay: as above
T1 sequence: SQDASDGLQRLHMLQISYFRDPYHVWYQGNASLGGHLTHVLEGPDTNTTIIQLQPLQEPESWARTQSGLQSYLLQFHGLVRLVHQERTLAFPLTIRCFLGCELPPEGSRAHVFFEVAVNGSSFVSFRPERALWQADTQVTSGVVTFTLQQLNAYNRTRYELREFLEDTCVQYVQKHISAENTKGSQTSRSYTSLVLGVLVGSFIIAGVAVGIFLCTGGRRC

Substance | binding [1] | binding [2]
3D7 PFD1235w PfEMP1 on infected erythrocytes (from UniProt Q8I098) | binds | binds
IT4VAR13 PfEMP1 on infected erythrocytes (from UniProt A3R6S0) | binds | no binding
